# Assay results

From PubChem BioAssay record AID1159506 (NCATS, 2015).

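Luminescence from an EWS-FLI1 target-promoter (NR0B1) reporter, set against a CMV-promoter reporter, two days after silencing single genes in TC32 Ewing sarcoma cells.
Each siRNA was applied at 20 nM.
A z-score of the log NR0B1-over-CMV signal, less the median of siRNAs with the same seed; more negative means a stronger specific loss of the NR0B1 reporter.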

This is part of the screen; most of the strongest results are not listed here.
Sequences are the guide (antisense) strand, without overhang.

| siRNA | target gene | seed-corrected z-score |
|---|---|---|
| `UGACAUAUGAUGACCGUGG` | BICC1 | -0.3901 |
| `UUUCAGUAUCUGUUCACUC` | C1orf186 | 0.819 |
| `UAUUUAACAAGCAUGUUCU` | TMEM30B | 0.4995 |
| `UAGUUACAUAGAUCUCAGG` | SZT2 | 1.25 |
| `UCUAGGUCAAUCUUGAGGC` | STAT3 | 0.2941 |
| `AAACGUACCACUCAUUGAG` | ZIC5 | -0.7343 |
| `UAAAGUCGAAUACACUCUG` | MED13 | 0.6646 |
| `UAACGUAAUCUGGACUUGG` | JKAMP | 1.298 |
| `UUUGAUCUCAGGCGAAGUG` | GIPC2 | -0.3542 |
| `UCAUGCUCGAAUUACUUGC` | HAUS3 | -0.09047 |
| `UAUGGAACAAGGGUCGCUG` | SPDYE4 | 0.3916 |
| `AACUGUAUACAAGAGGCUG` | ACOT12 | 0.1822 |
| `AUACGUACUCUCCAGAAUC` | IGSF10 | 0.8204 |
| `UCUUUGUAAAUCUCACACG` | TRIM75P | 2.026 |
| `UGGAUUUCUCGUUUCUUCU` | MBD3L2 | -0.4225 |
| `UGACUUGCAAAAGGUGUAC` | IQSEC3 | -1.459 |
| `UGAGAAGUCGCUGCUCUGG` | WDR38 | 0.8919 |
| `UGCAGGUUCAGAUGUACGU` | LINC01014 | -0.285 |
| `UCAAGUACGAUGCGUUUUC` | RPAP2 | -0.3799 |
| `UUUACUGCCCUCUUCAAUC` | SHROOM2 | -0.06487 |
| `UUCAGUCUUACUAAUCAAG` | CLECL1 | 0.5103 |
| `UGAGAUAUAAUGCUUGCUG` | KCNK16 | -0.3389 |
| `AUCUUGACAAGGGCAUUUG` | FAAP100 | -0.5524 |
| `UGCAGUGCGAGUCACAGUC` | NTN3 | 0.001721 |
| `UAAAGUCCAAUUAGCAUGC` | PON1 | -0.6624 |
| `UAUUGUAUGAAUAAGUUCC` | DEPDC4 | -0.2944 |
| `UCAUCUCUUAGUUCUCAGC` | PDLIM4 | -0.3067 |
| `UUACUGAGUACUCCGACUC` | BMP5 | -0.4426 |
| `UGCCGGUAAAGUCCAAUCC` | DENND6A | -1.636 |
| `UUGUAGACAACAUGAAUCC` | ADAMTS3 | -0.3995 |
| `UCUAGCUUAUCUUUUAGUG` | SMCO3 | 0.02132 |
| `UCACUUUCACUUGAGUCCC` | CD300LB | 0.4259 |
| `UGUCAUCCAACUCCAACCG` | TRIB3 | -0.1817 |
| `UUGCGGACCACGUCCAGAU` | RBM42 | 0.2153 |
| `AAUAUGUCUGCAACAAUCC` | NSMCE4A | -0.3922 |
| `UGAACUAAGACCUCCGACU` | C1orf127 | 0.1101 |
| `UACGUGCAGACGGUGGUAG` | TDGF1 | 0.4954 |
| `UUGUUGACCCGGGAUUUUG` | WWC1 | 0.04942 |
| `UUCUCAAUGACCGACAGGC` | AQP8 | -0.7687 |
| `AAUCUAAUCCGUUGAAAGC` | CD1C | 0.1777 |
| `UAUAGUAAUAAGGUUUGCC` | PRPF40B | -0.5069 |
| `AUCCAUACAGACAUUGAGG` | FOLR2 | -0.1599 |
| `UAUUUUUCAUCCAAGAAAU` | RPL9P11 | 0.1941 |
| `UAGCAUUCCAGUGUCGUGC` | HSPBAP1 | -0.5927 |
| `UGUACUACAUGAACAGUCC` | ELF1 | -1.046 |
| `AAGGGUGAAGCGCAGAUCA` | LINC00864 | 1.104 |
| `UAUAGAUAAUCUUUCCAGC` | APOL6 | -0.03977 |
| `UCACGUACUAAGAACGUGC` | CISH | 0.4404 |
| `UAAGGUAAUUCAAGUCUCC` | STAT5B | -0.2843 |
| `UGUCUUCACUCGACUCUGC` | FDXR | -0.7731 |
| `UUAUCGCGCAAAACCUUGC` | HIST1H4H | 0.4303 |
| `AAUGUGAUGUAGAACUCCC` | GPR180 | 1.412 |
| `UACAUUCACAUACUUCACU` | METTL2B | 0.1905 |
| `AAAGUACCGAUAGCUGCCC` | H3F3AP5 | 1.148 |
| `UUUCUAAGAAGUAUACUGG` | MCL1 | 0.6037 |
| `AACGGUUCUGGAUAUAGGC` | STIM1 | 0.6121 |
| `UAAUCUUUUAACUCCUACC` | SRA1 | 0.5666 |
| `UUUCAAACACCUGAUAGAC` | COQ5 | 0.5852 |

5 of the entries, repeated:

siRNA	target gene	seed-corrected z-score
AUCCAUACAGACAUUGAGG	FOLR2	-0.1599
UAUAGAUAAUCUUUCCAGC	APOL6	-0.03977
UGCAGUGCGAGUCACAGUC	NTN3	0.001721
UGACAUAUGAUGACCGUGG	BICC1	-0.3901
UGUCUUCACUCGACUCUGC	FDXR	-0.7731